No constants are given. Whether binding was seen depends on the method and setting. In cells and extracts the contact can be indirect. Some results given as binding are weak or reduced against the parent protein; the word gives no strength. For some assays here: Where a sequence is shown, tags or fusion partners need not be part of it.
Legend:
[1] = target: CD104 (human (endogenous in A818.4)) (UniProt P16144); assay: co-IP; endogenous proteins in TEX (exosome) lysates of A818.4 (wt, CD44v6kd or Tspan8kd); 100 ug lysate, HEPES buffer, 1% Lubrol or 1% TritonX-100; antibody 1h 4°C, ProteinG-Sepharose 1h; Western blot
[2] = target: CD184 (human (endogenous in A818.4)) (UniProt P61073); assay: as above
[3] = target: EphA4 (human (endogenous in A818.4)) (UniProt P54764); assay: as above
[4] = target: T1, prostaglandin F2 receptor negative regulator (human (endogenous in A818.4)) (UniProt Q9P2B2); assay: as above
T1 sequence: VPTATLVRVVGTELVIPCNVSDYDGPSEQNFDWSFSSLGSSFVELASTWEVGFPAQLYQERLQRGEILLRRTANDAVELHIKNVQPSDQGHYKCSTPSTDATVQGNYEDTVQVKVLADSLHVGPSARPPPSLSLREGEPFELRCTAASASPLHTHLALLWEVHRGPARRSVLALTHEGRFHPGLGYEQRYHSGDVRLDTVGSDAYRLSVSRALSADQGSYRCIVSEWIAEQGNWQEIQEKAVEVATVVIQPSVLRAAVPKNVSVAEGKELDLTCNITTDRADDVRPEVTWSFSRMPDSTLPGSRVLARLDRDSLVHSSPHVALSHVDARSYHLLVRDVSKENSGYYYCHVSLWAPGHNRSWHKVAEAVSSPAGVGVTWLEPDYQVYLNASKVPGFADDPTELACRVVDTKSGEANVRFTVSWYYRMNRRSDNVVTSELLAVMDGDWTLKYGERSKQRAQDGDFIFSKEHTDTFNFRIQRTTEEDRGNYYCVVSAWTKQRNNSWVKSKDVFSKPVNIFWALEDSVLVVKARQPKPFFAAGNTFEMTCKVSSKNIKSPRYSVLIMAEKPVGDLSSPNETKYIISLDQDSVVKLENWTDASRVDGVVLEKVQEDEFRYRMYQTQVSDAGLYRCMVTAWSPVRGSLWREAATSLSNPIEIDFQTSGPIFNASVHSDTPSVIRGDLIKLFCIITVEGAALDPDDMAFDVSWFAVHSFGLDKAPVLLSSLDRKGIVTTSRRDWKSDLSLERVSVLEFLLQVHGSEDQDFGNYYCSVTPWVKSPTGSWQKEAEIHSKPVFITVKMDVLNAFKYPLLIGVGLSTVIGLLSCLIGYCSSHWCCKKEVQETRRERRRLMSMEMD

By UniProt entry, the sequences of proteins in these tests, tags left out. Residues count along the entry.
UniProt P16144, residues 28-1822: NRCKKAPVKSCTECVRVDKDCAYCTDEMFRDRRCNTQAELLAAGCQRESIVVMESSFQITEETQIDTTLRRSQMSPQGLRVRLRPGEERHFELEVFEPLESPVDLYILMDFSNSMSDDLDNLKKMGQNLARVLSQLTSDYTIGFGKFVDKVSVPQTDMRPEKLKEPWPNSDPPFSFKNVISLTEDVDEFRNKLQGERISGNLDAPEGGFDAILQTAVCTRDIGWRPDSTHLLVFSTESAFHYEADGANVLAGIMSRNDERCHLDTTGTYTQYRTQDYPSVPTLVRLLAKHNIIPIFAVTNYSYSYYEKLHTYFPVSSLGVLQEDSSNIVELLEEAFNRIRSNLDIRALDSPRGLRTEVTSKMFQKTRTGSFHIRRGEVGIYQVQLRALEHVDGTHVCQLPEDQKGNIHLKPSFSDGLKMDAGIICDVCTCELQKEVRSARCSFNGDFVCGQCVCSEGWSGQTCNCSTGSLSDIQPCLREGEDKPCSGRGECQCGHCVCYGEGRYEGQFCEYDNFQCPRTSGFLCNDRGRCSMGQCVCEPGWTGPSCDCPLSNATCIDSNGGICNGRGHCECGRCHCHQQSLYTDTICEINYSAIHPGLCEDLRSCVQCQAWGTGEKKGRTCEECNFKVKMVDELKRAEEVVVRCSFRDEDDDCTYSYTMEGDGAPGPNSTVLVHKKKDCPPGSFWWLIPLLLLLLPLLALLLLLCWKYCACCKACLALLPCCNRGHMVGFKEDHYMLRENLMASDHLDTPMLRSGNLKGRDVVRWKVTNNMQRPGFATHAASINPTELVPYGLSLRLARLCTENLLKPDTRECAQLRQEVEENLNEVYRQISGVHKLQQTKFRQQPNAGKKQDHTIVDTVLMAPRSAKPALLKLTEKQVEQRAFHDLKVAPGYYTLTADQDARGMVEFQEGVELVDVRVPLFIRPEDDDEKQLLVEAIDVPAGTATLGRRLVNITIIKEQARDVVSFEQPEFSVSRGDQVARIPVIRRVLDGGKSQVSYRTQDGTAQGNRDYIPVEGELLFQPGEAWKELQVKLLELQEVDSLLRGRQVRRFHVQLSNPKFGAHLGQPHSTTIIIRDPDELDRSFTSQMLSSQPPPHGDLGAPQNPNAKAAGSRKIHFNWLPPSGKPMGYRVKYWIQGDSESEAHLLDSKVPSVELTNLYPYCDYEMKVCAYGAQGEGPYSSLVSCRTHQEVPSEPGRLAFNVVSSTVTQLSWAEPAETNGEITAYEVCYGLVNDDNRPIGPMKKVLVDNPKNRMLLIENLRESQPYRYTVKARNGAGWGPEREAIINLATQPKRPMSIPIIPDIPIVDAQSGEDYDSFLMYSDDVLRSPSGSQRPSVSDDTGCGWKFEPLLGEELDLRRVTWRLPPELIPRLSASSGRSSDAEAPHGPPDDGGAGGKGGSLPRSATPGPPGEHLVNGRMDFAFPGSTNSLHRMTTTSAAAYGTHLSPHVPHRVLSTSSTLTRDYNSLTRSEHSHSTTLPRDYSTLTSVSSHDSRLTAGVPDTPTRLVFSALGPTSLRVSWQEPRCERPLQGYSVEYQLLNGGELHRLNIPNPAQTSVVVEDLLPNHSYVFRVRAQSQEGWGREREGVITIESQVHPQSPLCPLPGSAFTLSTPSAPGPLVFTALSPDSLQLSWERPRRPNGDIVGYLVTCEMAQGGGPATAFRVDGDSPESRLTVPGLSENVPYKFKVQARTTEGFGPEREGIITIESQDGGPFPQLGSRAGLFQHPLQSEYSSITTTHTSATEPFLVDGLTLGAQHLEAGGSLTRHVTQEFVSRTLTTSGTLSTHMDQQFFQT
UniProt P61073: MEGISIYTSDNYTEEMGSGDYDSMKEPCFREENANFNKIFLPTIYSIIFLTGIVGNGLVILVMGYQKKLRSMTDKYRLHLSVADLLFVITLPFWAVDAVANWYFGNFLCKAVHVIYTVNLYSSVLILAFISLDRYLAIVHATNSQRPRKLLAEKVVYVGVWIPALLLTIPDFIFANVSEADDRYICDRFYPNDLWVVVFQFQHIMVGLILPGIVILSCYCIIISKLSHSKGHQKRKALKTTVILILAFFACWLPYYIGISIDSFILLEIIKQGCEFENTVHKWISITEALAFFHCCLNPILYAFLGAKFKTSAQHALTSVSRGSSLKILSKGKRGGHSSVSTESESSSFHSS
UniProt P54764, residues 20-986: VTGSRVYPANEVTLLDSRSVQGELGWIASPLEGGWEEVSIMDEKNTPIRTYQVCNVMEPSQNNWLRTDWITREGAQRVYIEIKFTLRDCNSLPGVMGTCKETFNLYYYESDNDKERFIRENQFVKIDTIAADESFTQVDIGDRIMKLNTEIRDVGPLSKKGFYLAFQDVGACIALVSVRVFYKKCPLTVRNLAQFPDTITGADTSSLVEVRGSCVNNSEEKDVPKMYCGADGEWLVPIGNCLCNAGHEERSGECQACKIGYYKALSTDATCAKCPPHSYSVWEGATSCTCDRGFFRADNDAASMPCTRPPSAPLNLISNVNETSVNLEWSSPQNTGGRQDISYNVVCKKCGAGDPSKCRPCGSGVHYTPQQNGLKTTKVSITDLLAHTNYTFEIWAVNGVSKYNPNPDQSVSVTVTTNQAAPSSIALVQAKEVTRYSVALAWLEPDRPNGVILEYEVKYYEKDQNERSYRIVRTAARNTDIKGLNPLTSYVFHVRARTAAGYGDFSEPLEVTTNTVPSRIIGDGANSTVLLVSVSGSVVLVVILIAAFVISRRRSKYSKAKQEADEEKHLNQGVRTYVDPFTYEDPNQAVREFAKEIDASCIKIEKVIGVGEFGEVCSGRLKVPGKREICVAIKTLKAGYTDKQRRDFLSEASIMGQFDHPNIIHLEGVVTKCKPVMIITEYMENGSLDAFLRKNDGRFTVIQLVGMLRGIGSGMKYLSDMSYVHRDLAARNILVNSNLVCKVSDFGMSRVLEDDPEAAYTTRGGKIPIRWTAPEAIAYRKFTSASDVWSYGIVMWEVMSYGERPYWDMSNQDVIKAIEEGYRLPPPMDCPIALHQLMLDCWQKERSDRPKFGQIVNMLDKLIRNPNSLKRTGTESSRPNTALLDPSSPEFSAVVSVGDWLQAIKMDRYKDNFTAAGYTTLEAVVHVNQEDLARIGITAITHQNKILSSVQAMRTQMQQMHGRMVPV
UniProt P15311: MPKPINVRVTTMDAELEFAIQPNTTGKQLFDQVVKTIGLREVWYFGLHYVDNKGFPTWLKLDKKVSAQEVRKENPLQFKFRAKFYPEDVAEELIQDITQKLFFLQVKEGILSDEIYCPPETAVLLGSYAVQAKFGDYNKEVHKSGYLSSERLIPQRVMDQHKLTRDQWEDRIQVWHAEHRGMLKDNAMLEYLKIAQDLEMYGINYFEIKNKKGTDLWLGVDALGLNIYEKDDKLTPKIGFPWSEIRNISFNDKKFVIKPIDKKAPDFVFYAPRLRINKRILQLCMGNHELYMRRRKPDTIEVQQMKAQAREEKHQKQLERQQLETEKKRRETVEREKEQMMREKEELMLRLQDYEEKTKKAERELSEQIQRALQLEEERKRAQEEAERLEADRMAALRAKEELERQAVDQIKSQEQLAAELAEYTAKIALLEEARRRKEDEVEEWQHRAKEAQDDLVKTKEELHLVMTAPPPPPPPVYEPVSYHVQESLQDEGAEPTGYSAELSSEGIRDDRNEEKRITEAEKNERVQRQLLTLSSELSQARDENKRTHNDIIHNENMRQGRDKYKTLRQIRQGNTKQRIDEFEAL

[5] = target: CD104 (human (endogenous in A818.4)) (UniProt P16144); assay: co-IP; endogenous proteins in cell lysates (A818.4; Figure 6(d) also Capan1; wt, CD44v6kd or Tspan8kd cells); 500 ug lysate, HEPES buffer, 1% Lubrol or 1% TritonX-100; antibody 1h 4°C, ProteinG-Sepharose 1h; Western blot
[6] = target: CD184 (human (endogenous in A818.4)) (UniProt P61073); assay: as above
[7] = target: EphA4 (human (endogenous in A818.4)) (UniProt P54764); assay: as above
[8] = target: ezrin (human (endogenous in A818.4)) (UniProt P15311); assay: as above

Measured: binding

B1: Tspan8 (protein, UniProt P19075 1-237)
chain: MAGVSACIKYSMFTFNFLFWLCGILILALAIWVRVSNDSQAIFGSEDVGSSSYVAVDILIAVGAIIMILGFLGCCGAIKESRCMLLLFFIGLLLILLLQVATGILGAVFKSKSDRIVNETLYENTKLLSATGESEKQFQEAIIVFQEEFKCCGLVNGAADWGNNFQHYPELCACLDKQRPCQSYNGKQVYKETCISFIKDFLAKNLIIVIGISFGLAVIEILGLVFSMVLYCQIGNK
binds: all assays above

Reference: paper PMC6702834
